Taken from: PubChem BioAssay AID743458 (Peter MacCallum Cancer Centre, 2014)
Aim: 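Retest earlier hits with independent siRNAs per gene for restoring vorinostat sensitivity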 (follow-up of hits). Cell system: human HCT116-VR colon cancer cells made resistant to vorinostat. Knock-down reagent: single siRNA or pool against human genes, 25 nM per single siRNA. Time to read-out: about 72 h after transfection, including 24 h of drug. Conditions: vorinostat, 2.5 µM final, for 24 h. Measurement: 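Live-cell fluorescent viability and luminescent caspase 3/7 activity after vorinostat treatment, background subtracted, mean of duplicate plates, as fold change over mock-transfected wells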. Direction: viability relative to mock: higher = more living cells than mock; caspase activity relative to mock: higher = more apoptosis than mock. Active means: 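Active means a reduced-viability or caspase-activation class, anything else inactive; classes could only be given to wells that looked healthy when left untreated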.
In all, the deposit lists about 1,800 reagents; this is a part drawn at random. Of all reagents, 732 (41%) got an active call. 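Calls are per siRNA reagent; a gene was deemed confirmed only if most of its four siRNAs scored.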 A number with no mark means an inactive call. The numbers tell different reagents against one gene apart.

{"gene": "HPCAL1 (GeneID 3241)", "reagent no.": 1, "viability relative to mock": "0.48 (active)", "caspase activity relative to mock": 2.3, "viability hit class": "reduced viability", "caspase hit class": "no change"}
{"gene": "HPCAL1 (GeneID 3241)", "reagent no.": 2, "viability relative to mock": 0.83, "caspase activity relative to mock": 1.43, "viability hit class": "no change", "caspase hit class": "no change"}
{"gene": "HPCAL1 (GeneID 3241)", "reagent no.": 3, "viability relative to mock": "0.46 (active)", "caspase activity relative to mock": 2.69, "viability hit class": "reduced viability", "caspase hit class": "caspase activation"}
{"gene": "HPCAL1 (GeneID 3241)", "reagent no.": 4, "viability relative to mock": "0.32 (active)", "caspase activity relative to mock": 3.25, "viability hit class": "reduced viability", "caspase hit class": "caspase activation"}
{"gene": "RASGRP2 (GeneID 10235)", "reagent no.": 1, "viability relative to mock": "0.21 (active)", "caspase activity relative to mock": 7.65, "viability hit class": "reduced viability", "caspase hit class": "caspase activation"}
{"gene": "RASGRP2 (GeneID 10235)", "reagent no.": 2, "viability relative to mock": 0.66, "caspase activity relative to mock": 1.23, "viability hit class": "no change", "caspase hit class": "no change"}
{"gene": "RASGRP2 (GeneID 10235)", "reagent no.": 3, "viability relative to mock": 1.03, "caspase activity relative to mock": 1.19, "viability hit class": "no change", "caspase hit class": "no change"}
{"gene": "RASGRP2 (GeneID 10235)", "reagent no.": 4, "viability relative to mock": 0.78, "caspase activity relative to mock": 1.19, "viability hit class": "no change", "caspase hit class": "no change"}

Next part, starting with the last 2 of the part before.
{"gene": "RASGRP2 (GeneID 10235)", "reagent no.": 3, "viability relative to mock": 1.03, "caspase activity relative to mock": 1.19, "viability hit class": "no change", "caspase hit class": "no change"}
{"gene": "RASGRP2 (GeneID 10235)", "reagent no.": 4, "viability relative to mock": 0.78, "caspase activity relative to mock": 1.19, "viability hit class": "no change", "caspase hit class": "no change"}
{"gene": "NUP205 (GeneID 23165)", "reagent no.": 1, "viability relative to mock": "0.25 (active)", "caspase activity relative to mock": 4.19, "viability hit class": "reduced viability", "caspase hit class": "caspase activation"}
{"gene": "NUP205 (GeneID 23165)", "reagent no.": 2, "viability relative to mock": "0.33 (active)", "caspase activity relative to mock": 3.06, "viability hit class": "reduced viability", "caspase hit class": "caspase activation"}
{"gene": "NUP205 (GeneID 23165)", "reagent no.": 3, "viability relative to mock": "0.33 (active)", "caspase activity relative to mock": 3.49, "viability hit class": "reduced viability", "caspase hit class": "caspase activation"}
{"gene": "NUP205 (GeneID 23165)", "reagent no.": 4, "viability relative to mock": "0.44 (active)", "caspase activity relative to mock": 3.29, "viability hit class": "reduced viability", "caspase hit class": "caspase activation"}
{"gene": "PNKP (GeneID 11284)", "reagent no.": 1, "viability relative to mock": "0.34 (active)", "caspase activity relative to mock": 1.6, "viability hit class": "reduced viability", "caspase hit class": "no change"}
{"gene": "PNKP (GeneID 11284)", "reagent no.": 2, "viability relative to mock": 0.68, "caspase activity relative to mock": 0.99, "viability hit class": "no change", "caspase hit class": "no change"}
{"gene": "PNKP (GeneID 11284)", "reagent no.": 3, "viability relative to mock": "0.61 (active)", "caspase activity relative to mock": 3.45, "viability hit class": "no change", "caspase hit class": "caspase activation"}
{"gene": "PNKP (GeneID 11284)", "reagent no.": 4, "viability relative to mock": 1.02, "caspase activity relative to mock": 1.06, "viability hit class": "no change", "caspase hit class": "no change"}
